Results as given in publication PMC11643816.
For some assays here: Construct, isoform or probe ends are uncertain for at least one entry. Whether high values mean tight binding is not given here for every scale.

Sequences of proteins named here, by UniProt entry; tags and fusion partners are left off. Residues count along the entry.
UniProt P02754, 17-178: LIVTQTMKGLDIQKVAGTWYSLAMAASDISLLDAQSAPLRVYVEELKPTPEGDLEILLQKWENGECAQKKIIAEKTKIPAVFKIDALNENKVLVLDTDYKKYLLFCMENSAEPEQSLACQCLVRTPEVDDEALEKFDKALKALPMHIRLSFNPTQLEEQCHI
UniProt P02769, 25-607: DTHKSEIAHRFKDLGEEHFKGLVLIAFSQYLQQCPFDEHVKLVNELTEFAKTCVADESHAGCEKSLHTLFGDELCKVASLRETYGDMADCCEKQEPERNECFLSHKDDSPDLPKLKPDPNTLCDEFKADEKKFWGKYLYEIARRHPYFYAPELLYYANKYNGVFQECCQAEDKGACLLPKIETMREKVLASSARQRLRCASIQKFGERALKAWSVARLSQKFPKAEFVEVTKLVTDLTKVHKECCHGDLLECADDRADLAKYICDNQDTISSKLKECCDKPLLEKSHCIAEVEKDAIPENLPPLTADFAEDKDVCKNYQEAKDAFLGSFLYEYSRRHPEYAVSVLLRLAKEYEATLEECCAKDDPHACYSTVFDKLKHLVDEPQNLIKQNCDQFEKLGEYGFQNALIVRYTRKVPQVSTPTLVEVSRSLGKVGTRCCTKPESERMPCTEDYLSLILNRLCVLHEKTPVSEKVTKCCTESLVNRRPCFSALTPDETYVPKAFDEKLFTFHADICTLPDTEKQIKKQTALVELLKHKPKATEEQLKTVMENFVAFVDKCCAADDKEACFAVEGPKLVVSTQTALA

Tests used:
beta-lactoglobulin = beta-lactoglobulin (UniProt P02754); experiment: QCM bond rupture sandwich; conditions: 100 ng/mL, sandwich with aptamer II beads; 5'-SH-(CH2)6; 30 °C, 70 min per binding step; aptamer I 3 μmol/L on gold with MCH block; aptamer II beads stored in 10 mmol/L PBS; binding buffer, salt and pH not stated; single-stranded DNA; counted as no binding
[1] = biological target: bovine serum albumin (BSA) (bovine) (UniProt P02769); experiment: QCM bond rupture sandwich; conditions: 100 ng/mL, sandwich with aptamer II beads; 5'-SH-(CH2)6; 30 °C, 70 min per binding step; aptamer I 3 μmol/L on gold with MCH block; aptamer II beads stored in 10 mmol/L PBS; binding buffer, salt and pH not stated; single-stranded DNA; counted as no binding

Sequence: TGGTGCTGCCCCTAGTCTCCGGCTGCTTCTTGG [aptamer I]
- binding signal (% of LF signal) (beta-lactoglobulin): 9.66
- binding signal (% of LF signal) [1]: 8.9
